Laboratory results published in PubChem BioAssay AID1487 (National Center for Advancing Translational Sciences (NCATS), 2009).
Some of the results follow. The main result of the screen is listed elsewhere. These columns were measured beside it and carry no call. Most of these compounds were active or inconclusive in the main read-out, so they are no random draw. Potencies come from curve fits of mixed quality, noted in brackets.

Assay: qHTS Assay for Modulators of Lamin A Splicing
Details: HeLa LMNA splicing GFP/RFP minigene ratio, 48 h
Procedure, shortened: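 S3 HeLa cells stably expressing lamin A-EGFP splicing minigene plus DsRed2, 600 cells/well, 48 h compound exposure at 37C. Laser-scanning cytometry; analysed as GFP (500-530 nm)/RFP (575-640 nm) total intensity ratio; 0.5% DMSO vehicle.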

[1] = measured here: GFP splicing reporter channel
[2] = measured here: RFP viability control channel

SMILES | AC50 [1] | AC50 [2]
c1cncc(Nc2nc(-c3cccnc3)cs2)c1 | 0.355 µM [rising, single point] | –
O=c1c2nnn(-c3ccc(Cl)cc3)c2ncn1Cc1ccccn1 | 3.55 µM [falling, full curve, poor fit] | 4.47 µM [falling, full curve, poor fit]
C/C(=C\C(=O)Nc1nccs1)c1ccccc1 | 35.5 µM [rising, single point] | 35.5 µM [rising, single point]
COC(=O)c1c(NC(=O)CSc2nnc(C)c(=O)[nH]2)sc(C)c1C | 0.0158 µM [falling, full curve, poor fit] | 0.0126 µM [falling, full curve, poor fit]
CCn1c(SCC(=O)Nc2sc3c(c2C#N)CCC(C(C)(C)C)C3)nnc1-c1ccco1 (stereo unspecified) | 17.8 µM [falling, partial curve, poor fit] | –
CCc1nc(SCC(=O)c2ccccc2)c2ccccc2n1 | 14.1 µM [falling, single point] | 5.01 µM [falling, partial curve, poor fit]
O=S(=O)(NC1CC1)c1ccc(S(=O)(=O)N2CCCC(c3nc(-c4cccnc4)no3)C2)cc1 (stereo unspecified) | – | 12.6 µM [rising, single point]
Cc1ccc(OCCOc2ccc(Cl)cc2Cl)c([N+](=O)[O-])n1 | 14.1 µM [rising, single point] | 15.8 µM [rising, partial curve]
CCn1c(NC(=O)c2cccc(Cn3cc(Cl)cn3)c2)nc2ccccc21 | – | 22.4 µM [rising, single point]
Cc1ccc(N2CC(NC(=O)/C=C\c3ccc4c(c3)OCO4)CC2=O)cc1C (stereo unspecified) | – | 7.08 µM [rising, full curve, poor fit]
CCN(CC)C(=O)n1cnc(-c2ccccc2)c1-c1ccccc1 | 4.47 µM [rising, partial curve] | 6.31 µM [rising, partial curve, poor fit]
CCN(CC)C(=O)C1CCN(S(=O)(=O)c2ccc3c(c2)CCCN3C(C)=O)CC1 | 0.0355 µM [rising, full curve] | 0.0224 µM [rising, full curve, poor fit]
COc1cccc(-c2cncnc2NCc2ccccc2)c1 | 12.6 µM [falling, partial curve, poor fit] | 3.55 µM [rising, single point]
COC(=O)c1scc(-c2ccccc2)c1S(=O)(=O)Nc1ccccc1 | 1.78 µM [rising, full curve, poor fit] | –
O=C(O)c1c(-c2ccccc2)c2oc3ccccc3c2[nH]c1=O | 35.5 µM [rising, single point] | 20 µM [rising, single point]
Cc1ccc(-n2ncc3c(=O)n(-c4ccc(C)c(C)c4)c(-c4ccco4)nc32)cc1 | – | 20 µM [rising, single point]
N#CC1=C(N)Oc2c(ccc3cccnc23)C1c1cccnc1 (stereo unspecified) | – | 6.31 µM [rising, full curve]
O=C(Nc1cccc(S(=O)(=O)N2CCCCC2)c1)c1c2c(nc3ccccc13)CCN(Cc1ccccc1)C2 | 35.5 µM [rising, single point] | 35.5 µM [rising, single point]
O=C(c1cccc([N+](=O)[O-])c1)N1CCN(c2cccc(Cl)c2)CC1 | – | 31.6 µM [rising, single point]
O=S(=O)(c1ccc2c(c1)OCCO2)N1CCC(n2nnc3cc(F)ccc32)CC1 | – | 31.6 µM [rising, single point]
Cc1nn(C(=O)c2cccc([N+](=O)[O-])c2C)c(C)c1S(=O)(=O)N1CCOCC1 | 11.2 µM [falling, partial curve, poor fit] | –
CCC(=O)Nc1ccc2c(c1)ncn2-c1ccccc1 | – | 4.47 µM [falling, full curve, poor fit]
CC(=O)Nc1ccc(S(=O)(=O)NCC2CCC(C(=O)NCCc3ccccc3)CC2)cc1 (stereo unspecified) | – | 10 µM [falling, partial curve, poor fit]
Cc1ccc(NNC(=O)C(=O)N2CCCCC2)cc1 | – | 35.5 µM [rising, single point]
CCOC(=O)c1[nH]c2ccc(F)cc2c1NC(=O)CN1CCN(C/C=C/c2ccccc2)CC1 | 17.8 µM [rising, partial curve] | 12.6 µM [rising, partial curve]
COc1ccccc1NC(=O)c1c(Nc2ccccc2F)sc(C(=O)Nc2cccc(Cl)c2)c1N | – | 22.4 µM [rising, single point]
O=C1CC(c2nc3ccccc3[nH]2)CN1c1cccc(C(F)(F)F)c1 (stereo unspecified) | – | 11.2 µM [rising, partial curve]

One compound at a time, as listed above. Values in the order: AC50 [1]	AC50 [2]
Cc1nn(C(=O)c2cccc([N+](=O)[O-])c2C)c(C)c1S(=O)(=O)N1CCOCC1 is entered as 11.2 µM [falling, partial curve, poor fit]	–
O=c1c2nnn(-c3ccc(Cl)cc3)c2ncn1Cc1ccccn1 is entered as 3.55 µM [falling, full curve, poor fit]	4.47 µM [falling, full curve, poor fit]

Later entries

SMILES | AC50 [1] | AC50 [2]
CC(=O)N1N=C(c2ccc(C)cc2)CC1c1ccco1 (stereo unspecified) | – | 0.00794 µM [falling, full curve, poor fit]
O=C(N/N=C/c1cn(Cc2ccccc2)c2ccccc12)c1cccnc1 | 2.24 µM [rising, full curve] | 7.08 µM [rising, partial curve]
CC(C)Cn1c(SCC(=O)NCc2ccc(Cl)cc2)nnc1-c1cccc(S(=O)(=O)N2CCOCC2)c1 | – | 31.6 µM [rising, single point]
CCOc1ccc(OCc2cccc(C(=O)N(CC)CC)c2)cc1 | 35.5 µM [falling, single point] | 11.2 µM [rising, partial curve, poor fit]
O=C(COC(=O)c1ccc(F)cc1)NCCc1ccc(F)cc1 | 35.5 µM [falling, partial curve] | 20 µM [falling, partial curve]
CC(=O)Nc1ccc(Br)c2ccccc12 | 0.02 µM [falling, partial curve, poor fit] | –
COc1ccccc1N1CCN(C(=O)Cn2ncc3c([nH]c4ccccc43)c2=O)CC1 | – | 4.47 µM [falling, single point]
O=C(C1CCN(c2nnc(-n3cccc3)s2)CC1)N1CCN(c2cccc(C(F)(F)F)c2)CC1 | 0.2 µM [rising, full curve] | 2.82 µM [rising, partial curve]
Cc1cccc(Nc2nc(N)c([N+](=O)[O-])c(N3CCC(C)CC3)n2)c1 | 35.5 µM [rising, single point] | 22.4 µM [rising, single point]
CCOC(=O)CSc1nc(C)c2ccc(C)cc2n1 | – | 35.5 µM [rising, single point]
Cc1ccc(N(CC(O)COCc2ccco2)S(=O)(=O)c2ccc(C)cc2)cc1 (stereo unspecified) | 15.8 µM [falling, single point] | 12.6 µM [falling, partial curve, poor fit]
COc1ccc(OC)c(S(=O)(=O)N2CCC(c3ccncc3)CC2)c1 | 0.0141 µM [rising, full curve] | –
O=C(NC(Nc1ccccn1)C(Cl)(Cl)Cl)c1ccccc1 (stereo unspecified) | 22.4 µM [falling, single point] | –
COc1cc(C(=O)Nc2cccc(-c3nc4ncccc4o3)c2C)cc(OC)c1OC | – | 0.0251 µM [falling, full curve]
COc1cccc(NC(=O)CSC2=Nc3ccccc3N=C(c3ccc(F)cc3)C2)c1 | – | 3.16 µM [rising, partial curve, poor fit]
CCCC1CCC(c2ccc(C(=O)NN)cc2)CC1 (stereo unspecified) | – | 35.5 µM [rising, partial curve]
O=C(CNC(=O)c1ccc(S(=O)(=O)N2CCCC2)cc1)N/N=C/c1c(Cl)cccc1Cl | – | 35.5 µM [rising, single point]
CCc1ccc(-n2c(SCc3ccccc3F)nc3[nH]ncc3c2=O)cc1 | 35.5 µM [falling, single point] | 35.5 µM [falling, single point]
CCOC(=O)c1c(N)n(-c2cccc(OC)c2)c2nc3ccccc3nc12 | 4.47 µM [rising, partial curve] | –
O=C(NCCNc1ccc(Cl)cc1[N+](=O)[O-])c1cccnc1 | 0.251 µM [rising, full curve, poor fit] | –
O=C(Nc1ccn(Cc2ccccc2F)n1)c1ccc(COc2ccc(Cl)cc2Cl)o1 | 31.6 µM [rising, single point] | 31.6 µM [rising, single point]
C[C@@]12CC[C@@H]3c4ccc(O)cc4CC[C@H]3[C@H]1CC[C@H]2O | 0.00708 µM [falling, full curve] | 0.224 µM [falling, partial curve, poor fit]
Cc1ccc(-c2nc3ccccc3s2)cc1NC(=S)NC(=O)c1cccc2ccccc12 | – | 0.708 µM [rising, full curve, poor fit]
COc1ccc(NC(=S)NCCc2c[nH]c3ccccc23)cc1 | – | 35.5 µM [rising, single point]
Cc1cc(C)cc(N(C(=O)c2sc(C)nc2C)C(C(=O)NC(C)(C)C)c2ccncc2)c1 (stereo unspecified) | 1.41 µM [rising, partial curve, poor fit] | –
Cc1cc(N2CCCCC2)nc2ccc(NC(=O)c3ccc(Br)o3)cc12 | 22.4 µM [rising, partial curve, poor fit] | 31.6 µM [rising, single point]
OCCN1CCN(CCCc2c3c(cc4c2CCC4)CCC3)CC1 | 35.5 µM [rising, single point] | 35.5 µM [rising, single point]
